In article PMC7132340:
Results are given in words; binding and its absence hold for the method and conditions named. In cells and extracts the contact can be indirect. Some binding calls cover weakened binding; strength is not graded here.

By UniProt entry, the sequences of proteins in these tests, tags left out. Residues count along the entry.
UniProt P16110: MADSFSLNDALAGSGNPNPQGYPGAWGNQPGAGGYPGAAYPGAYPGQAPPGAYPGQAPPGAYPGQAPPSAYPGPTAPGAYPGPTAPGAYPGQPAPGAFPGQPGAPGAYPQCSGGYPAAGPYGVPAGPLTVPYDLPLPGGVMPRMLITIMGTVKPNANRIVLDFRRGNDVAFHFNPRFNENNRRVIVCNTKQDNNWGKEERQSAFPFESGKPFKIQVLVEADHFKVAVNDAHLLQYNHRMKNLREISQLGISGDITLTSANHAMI
UniProt P40224, residues 22-93: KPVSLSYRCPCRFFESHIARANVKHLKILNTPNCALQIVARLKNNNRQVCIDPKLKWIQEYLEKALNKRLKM

Experiments:
[1] = molecular target: Gal‐3, endogenous in mouse (mouse (endogenous in peritoneal lavage cells and lymph nodes)) (UniProt P16110); assay: proximity ligation; antibody-based PLA (Duolink) on frozen sections of lymph nodes from WT and CXCL12−/− mice
[2] = molecular target: Gal‐3, endogenous in mouse (mouse (endogenous in peritoneal lavage cells and lymph nodes)) (UniProt P16110); assay: proximity ligation; antibody-based PLA (Duolink) on cells from mouse peritoneal lavages after injection of PBS or thioglycolate

binding [1]: binds | binding [2]: binds
Substance: CXCL12, endogenous in mouse (from UniProt P40224 22-93) (ligand)
